## Percent effect of library compounds

The chains behind the UniProt entries cited, without tags or fusion partners. Residues count along the entry.
UniProt P9WNZ1, whole entry: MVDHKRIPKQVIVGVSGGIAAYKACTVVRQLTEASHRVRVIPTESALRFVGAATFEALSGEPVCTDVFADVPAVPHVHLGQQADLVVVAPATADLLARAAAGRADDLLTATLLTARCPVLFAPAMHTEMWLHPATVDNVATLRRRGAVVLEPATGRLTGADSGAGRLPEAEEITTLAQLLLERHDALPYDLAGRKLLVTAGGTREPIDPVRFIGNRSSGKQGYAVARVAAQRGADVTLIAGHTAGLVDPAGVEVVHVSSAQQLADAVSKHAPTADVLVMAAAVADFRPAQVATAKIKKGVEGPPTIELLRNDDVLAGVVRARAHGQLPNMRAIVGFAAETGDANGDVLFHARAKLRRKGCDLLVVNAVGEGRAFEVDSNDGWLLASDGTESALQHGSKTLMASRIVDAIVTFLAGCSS
UniProt Q8IDJ8, 1-583: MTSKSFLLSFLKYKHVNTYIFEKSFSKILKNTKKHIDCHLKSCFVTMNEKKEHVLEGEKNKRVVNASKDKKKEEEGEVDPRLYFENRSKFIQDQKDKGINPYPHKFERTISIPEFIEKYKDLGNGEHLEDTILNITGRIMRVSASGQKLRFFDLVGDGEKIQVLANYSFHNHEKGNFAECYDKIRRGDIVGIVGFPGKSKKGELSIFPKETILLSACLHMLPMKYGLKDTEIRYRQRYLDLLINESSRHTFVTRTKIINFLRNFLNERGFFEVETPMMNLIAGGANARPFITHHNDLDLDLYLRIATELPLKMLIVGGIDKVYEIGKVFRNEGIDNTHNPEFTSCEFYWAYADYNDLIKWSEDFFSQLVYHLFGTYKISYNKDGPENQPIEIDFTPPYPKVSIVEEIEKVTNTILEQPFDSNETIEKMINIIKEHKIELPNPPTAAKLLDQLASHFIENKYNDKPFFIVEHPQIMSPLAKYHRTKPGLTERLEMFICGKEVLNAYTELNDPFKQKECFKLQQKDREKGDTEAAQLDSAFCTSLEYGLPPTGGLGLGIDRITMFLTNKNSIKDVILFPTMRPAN
UniProt P9WFT3, whole entry: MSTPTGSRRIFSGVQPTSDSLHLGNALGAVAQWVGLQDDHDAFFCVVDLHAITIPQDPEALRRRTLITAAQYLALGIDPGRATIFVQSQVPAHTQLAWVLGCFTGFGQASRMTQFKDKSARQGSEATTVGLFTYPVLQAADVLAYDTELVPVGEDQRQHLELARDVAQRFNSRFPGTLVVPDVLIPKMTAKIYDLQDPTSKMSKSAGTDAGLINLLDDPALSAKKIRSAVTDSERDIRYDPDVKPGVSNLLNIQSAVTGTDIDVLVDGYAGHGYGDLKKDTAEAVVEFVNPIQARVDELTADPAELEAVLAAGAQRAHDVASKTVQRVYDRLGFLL
UniProt I6X8D2, whole entry: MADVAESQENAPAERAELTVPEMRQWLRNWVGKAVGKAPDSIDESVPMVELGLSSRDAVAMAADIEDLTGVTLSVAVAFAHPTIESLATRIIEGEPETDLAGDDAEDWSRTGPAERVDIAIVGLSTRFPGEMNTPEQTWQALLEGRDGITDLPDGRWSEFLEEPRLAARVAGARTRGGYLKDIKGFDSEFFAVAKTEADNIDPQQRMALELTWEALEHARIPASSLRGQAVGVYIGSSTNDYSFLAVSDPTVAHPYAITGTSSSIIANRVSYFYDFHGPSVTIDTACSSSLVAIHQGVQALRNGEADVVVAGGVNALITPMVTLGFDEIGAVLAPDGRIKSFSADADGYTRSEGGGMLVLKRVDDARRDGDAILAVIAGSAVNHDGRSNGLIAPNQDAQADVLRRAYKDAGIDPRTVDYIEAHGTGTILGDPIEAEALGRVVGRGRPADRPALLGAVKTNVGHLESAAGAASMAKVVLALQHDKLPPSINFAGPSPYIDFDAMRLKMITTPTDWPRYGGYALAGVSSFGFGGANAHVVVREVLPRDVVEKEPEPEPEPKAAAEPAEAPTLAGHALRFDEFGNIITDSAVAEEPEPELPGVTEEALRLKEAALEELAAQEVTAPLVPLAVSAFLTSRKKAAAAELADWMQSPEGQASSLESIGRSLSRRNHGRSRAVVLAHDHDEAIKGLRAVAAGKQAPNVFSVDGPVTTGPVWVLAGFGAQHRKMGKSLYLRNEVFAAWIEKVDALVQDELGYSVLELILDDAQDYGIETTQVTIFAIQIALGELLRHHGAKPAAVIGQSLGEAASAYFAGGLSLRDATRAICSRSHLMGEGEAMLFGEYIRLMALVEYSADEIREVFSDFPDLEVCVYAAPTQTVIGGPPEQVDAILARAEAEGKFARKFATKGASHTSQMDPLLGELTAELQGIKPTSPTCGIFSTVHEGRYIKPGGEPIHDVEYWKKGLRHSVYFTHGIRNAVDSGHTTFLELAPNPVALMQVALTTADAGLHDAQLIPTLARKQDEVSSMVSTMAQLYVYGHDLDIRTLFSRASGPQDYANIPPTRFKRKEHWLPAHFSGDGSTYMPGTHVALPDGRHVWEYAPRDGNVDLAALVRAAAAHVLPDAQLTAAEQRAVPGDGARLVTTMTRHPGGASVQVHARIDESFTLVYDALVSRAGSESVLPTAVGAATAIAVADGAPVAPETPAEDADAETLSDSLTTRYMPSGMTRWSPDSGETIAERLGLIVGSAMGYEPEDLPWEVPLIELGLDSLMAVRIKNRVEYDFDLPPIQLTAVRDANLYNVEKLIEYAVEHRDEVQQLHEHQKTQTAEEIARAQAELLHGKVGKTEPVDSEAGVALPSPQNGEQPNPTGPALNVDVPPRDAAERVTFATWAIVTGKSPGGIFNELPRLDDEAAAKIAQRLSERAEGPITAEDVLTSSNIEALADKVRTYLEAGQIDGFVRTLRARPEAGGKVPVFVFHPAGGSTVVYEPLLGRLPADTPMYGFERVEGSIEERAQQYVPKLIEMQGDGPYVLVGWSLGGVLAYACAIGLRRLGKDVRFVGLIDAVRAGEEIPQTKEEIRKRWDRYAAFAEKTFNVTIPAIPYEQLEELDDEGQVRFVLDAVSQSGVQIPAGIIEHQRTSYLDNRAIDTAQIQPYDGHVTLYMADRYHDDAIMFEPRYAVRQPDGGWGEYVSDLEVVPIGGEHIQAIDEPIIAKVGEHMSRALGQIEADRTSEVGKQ

The values are deposited in ChEMBL (CHEMBL3988442, “University of Dundee, Small-Polar-MMV Screening Library” (2021)).

Each number is a percent effect as filed.
The controls that fix the scale are not given in the record; negative values are as filed.
The compounds are a random part of those screened.

CoaBC: 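Enzyme assay of CoaBC with a phosphate dye (Biomol Green) read at 650 nm. Target: Coenzyme A biosynthesis protein CoaBC, Mycobacterium tuberculosis (UniProt P9WNZ1). Compounds at 30 µM. Higher reads as stronger inhibition, judged from the few compounds that gave an IC50. Most strong results did not repeat in a second test. About 67,000 compounds were tested under these conditions; 0.06% (about 40) showed 50% or more at least once.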
PfKRS1: 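Enzyme assay of the cytosolic lysyl-tRNA synthetase in 384-well plates, read by luminescence. Target: Lysine-tRNA ligase, Plasmodium falciparum 3D7 (UniProt Q8IDJ8). Compounds at 30 µM. Direction is inferred from only a few compounds that gave an IC50; most scored high, so higher reads as stronger inhibition. Size under these conditions: about 69,000 compounds, about 49 of them at 50% or above in at least one test.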
Toxoplasma: 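Assay of Toxoplasma gondii numbers, read through their beta-galactosidase reporter with a colour substrate. Compounds at 10 µM. Higher reads as fewer parasites (inferred from which compounds were picked for retests). Of about 67,000 compounds tested this way, about 260 (0.38%) reached 50% or more in at least one test.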
MtTrpRS: 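Tryptophan-tRNA ligase, Mycobacterium tuberculosis (UniProt P9WFT3). Enzyme assay of tryptophanyl-tRNA synthetase; the read-out is not stated. Compounds at 10 µM. Direction is not recorded; retested compounds ran higher, which suggests that high means inhibition. Size under these conditions: about 65,000 compounds, about 64 of them at 50% or above in at least one test.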
Pks13 thioesterase: 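Polyketide synthase Pks13, Mycobacterium tuberculosis (UniProt I6X8D2). Enzyme assay of the thioesterase domain of polyketide synthase 13; the read-out is not stated. Concentration: 30 µM. The record gives no direction; the compounds picked for IC50 retests had high values, so higher reads as stronger inhibition. Of about 67,000 compounds tested this way, about 300 (0.46%) reached 50% or more in at least one test.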

CS(=O)(=O)N1C[C@@H]2CCN(C(=O)c3cscn3)[C@@H]2C1 gave CoaBC: -0.2439%; PfKRS1: 4.946%; Pks13 thioesterase: 8.42%.
Cc1c(C(=O)N2CCCC(n3nnc4cc(F)ccc43)C2)cnn1C (centres unmarked) gave CoaBC: -0.9804%; PfKRS1: 4.095%; Toxoplasma: -15.83%; Pks13 thioesterase: 14.2%.
[H][C@@]12C=C[C@@]([H])(C1)[C@H](C(=O)N1CCN(c3cc(C)nc(C)c3)CC1)C2 gave Toxoplasma: 7.265%.
COCC1CN(S(=O)(=O)c2ccc(C)cc2)Cc2c1cnn2C.O=C(O)C(F)(F)F (centres unmarked) gave Toxoplasma: -1.348%.
NC(=O)c1ccccc1NC(=O)CCN1CCN(c2ccccc2)CC1 gave CoaBC: 5.696%; PfKRS1: -0.4013%; Toxoplasma: -13.54%; MtTrpRS: -0.2712%; Pks13 thioesterase: 6.658%.
O=c1[nH]cc(N2CCCCCC2)c(=O)[nH]1 gave CoaBC: 4.373%; PfKRS1: 0.2131%; Toxoplasma: -9.433%; MtTrpRS: 4.146%; Pks13 thioesterase: -8.416%.
[H][C@@]12C[C@H](C(=O)N3CCCCO3)CN(C(=O)c3ccncc3)[C@]1([H])CCO2 gave Toxoplasma: 2.885%.
Cc1cc(N2CCOC(c3ccc(N(C)C)cn3)C2)nc(N)n1 (centres unmarked) gave CoaBC: 2.906%; PfKRS1: 0.3981%; Toxoplasma: 4.439%; MtTrpRS: -3.851%; Pks13 thioesterase: -5.502%.
NS(=O)(=O)CCNC(=O)c1cc2cccc(F)c2o1 gave CoaBC: 13.1%; PfKRS1: 0.5023%; Toxoplasma: 1.34%; MtTrpRS: 4.447%; Pks13 thioesterase: -24.68%.
Cc1nn(C)c(Cl)c1C1CCCN1CC(=O)NC1CCCCC1 (centres unmarked) gave CoaBC: 1.869%; PfKRS1: 5.174%; Toxoplasma: 3.427%; MtTrpRS: 1.248%; Pks13 thioesterase: -14.79%.
CCc1cc(NC2CCN(S(C)(=O)=O)CC2)n2nc(C)c(C)c2n1 gave CoaBC: 2.11%; PfKRS1: 1.606%; Toxoplasma: 5.234%; MtTrpRS: 0.1896%; Pks13 thioesterase: -1.57%.
[H][C@@]12CN(Cc3nccs3)C[C@@H](C(=O)NC(C)C)[C@]1([H])CCO2 gave Toxoplasma: 0.253%.
O=C(Cn1c(-c2ccco2)cc2cccnc21)N1CCCC1 gave CoaBC: 5.251%; PfKRS1: 9.044%; MtTrpRS: 1.006%; Pks13 thioesterase: 31.71%.
O=C(O)C(F)(F)F.[H][C@@]12CCCO[C@]1([H])[C@H](N1CCCC1=O)CN(Cc1cnn(C)c1)C2 gave Toxoplasma: 5.039%.
CC(C)n1ccc2cc(C(=O)Nc3nc[nH]n3)ccc21 gave CoaBC: 4.051%; PfKRS1: -0.1825%; Toxoplasma: -10.81%; MtTrpRS: -3.749%; Pks13 thioesterase: -2.327%.
Cc1noc(C(C)N2CCN(CC(=O)N3CCCC3)CC2)n1 (centres unmarked) gave CoaBC: 0.361%; PfKRS1: 3.524%; Toxoplasma: 3.46%; MtTrpRS: 0.1467%; Pks13 thioesterase: 13.4%.
Cc1cc(N2CCN(Cc3ccccc3)CC(O)C2)nc(N)n1 (centres unmarked) gave CoaBC: 2.778%; PfKRS1: 9.713%; Toxoplasma: -12.82%; MtTrpRS: -4.131%; Pks13 thioesterase: -7.649%.
CO[C@H]1CN(S(=O)(=O)c2ccc(F)cc2)C[C@@]12CCCO2 gave CoaBC: 5.361%; PfKRS1: -1.114%; Toxoplasma: 16.8%; MtTrpRS: 41.61%; Pks13 thioesterase: -23.06%.
Cc1nc(CNC(=O)Cn2nc(-c3ccc(F)cc3)oc2=O)cs1 gave CoaBC: 1.862%; PfKRS1: 5.203%; Toxoplasma: -13.27%; MtTrpRS: 0.3145%; Pks13 thioesterase: 3.081%.
COc1cccc(CCC(=O)Nc2cnc3c(c2)c(C)nn3C)c1OC gave CoaBC: -2.684%; PfKRS1: 3.356%; Toxoplasma: 19.97%; MtTrpRS: -5.488%; Pks13 thioesterase: -11.1%.
COC(=O)[C@H]1C[C@@H](O)CCN1S(=O)(=O)c1c(C)cc(OC)c(C)c1C gave CoaBC: 5.941%; PfKRS1: 3.127%; Toxoplasma: -16.43%; MtTrpRS: 0.7607%; Pks13 thioesterase: -12.96%.
COc1ccc(C(C)NCc2cccs2)cc1Cn1cccn1 (centres unmarked) gave CoaBC: -7.992%; PfKRS1: -4.983%; Toxoplasma: -25.59%; MtTrpRS: 1.264%; Pks13 thioesterase: -28.5%.
CC(C)N1CCC(c2n[nH]cc2-c2ccnc(N)c2)C1 (centres unmarked) gave CoaBC: 3.154%; PfKRS1: 0.6972%; Toxoplasma: 18.38%; MtTrpRS: -2.211%; Pks13 thioesterase: 2.577%.
CCc1cnc(NCc2nc(CSC)no2)nc1 gave CoaBC: 5.161%; PfKRS1: 3.73%; Toxoplasma: -6.778%; MtTrpRS: 9.049%; Pks13 thioesterase: 2.063%.
O=C(c1cc2c(s1)CCC2)N1CCCCC1Cn1cccn1 (centres unmarked) gave CoaBC: 4.722%; PfKRS1: 1.594%; Toxoplasma: 4.847%; MtTrpRS: -1.263%; Pks13 thioesterase: -25.17%.
COC(=O)c1cccn1C1CCN(C(=O)c2ccc(C)cc2O)CC1 gave CoaBC: 3.742%; PfKRS1: 1.26%; Toxoplasma: 4.964%; MtTrpRS: -2.532%; Pks13 thioesterase: -14.65%.
O=C([C@@H]1C[C@H]2[C@H](CCN2Cc2nccs2)O1)N1CCOCC1 gave CoaBC: -0.6211%; PfKRS1: 15.23%; MtTrpRS: -1.689%; Pks13 thioesterase: -16.79%.
CCN1CCc2c(CNC(=O)c3nccn3C)cncc2C1.Cl.Cl.Cl gave Toxoplasma: -4.721%.

The first 2 entries again:

{"structure": "CS(=O)(=O)N1C[C@@H]2CCN(C(=O)c3cscn3)[C@@H]2C1", "CoaBC": -0.2439, "PfKRS1": 4.946, "Pks13 thioesterase": 8.42}
{"structure": "Cc1c(C(=O)N2CCCC(n3nnc4cc(F)ccc43)C2)cnn1C", "stereo": "centres unmarked", "CoaBC": -0.9804, "PfKRS1": 4.095, "Toxoplasma": -15.83, "Pks13 thioesterase": 14.2}